# Data reported in patent US20040053234A1, “Polynucletides that control delta-6 desaturase genes and methods for identifying compounds for modulating delta-6 desaturase” (priority 2000, published 2004).
# What was measured:
# [1] = test system: spheroplasts of transformed Saccharomyces cerevisiae; assay: O.D.600 and substrate radioactivity recovered in spheroplasts (cytotoxicity, uptake); type: cell-based; conditions: for % of [1-14C]-ALA Recovered in Cells: hD6D-1 spheroplasts; for % of [1-14C]-LA Recovered in Cells: rD6D-1 spheroplasts
# From the text: Total lipids were extracted as described below.
# [2] = test system: whole cells of transformed Saccharomyces cerevisiae; assay: O.D.600 and substrate radioactivity recovered in whole yeast cells; conditions: hD6D-1 whole cells
# Protocol: Transformed Saccharomyces cerevisiae pTh5002.1 with V5/6xHis tags were incubated in a 125 ml Erlenmeyer flask containing 9 ml of modified SC-U medium with 1% tergitol (O.D.6000.4, approximately 3.2×10^6 cells) and 200 μl of 7, 14 or 28 mM n-propyl gallate in ethanol. After 1 h incubation in an orbital incubator at 270 rpm and 30° C., 1 μCi of potassium salts of [1-^14C]-linoleic or [1-^14C]-alpha-linolenic acids (dissolved in modified SC-U medium and 1% tergitol) were added to the cell suspension to a final concentration of 2 μM. After 5 h incubation with the inhibitor, cells reached the log phase and the transgene expression was induced with the addition of 1 ml of galactose to a final concentration of 2%.
compound,measurement,setting,value
"CCCOC(=O)c1cc(O)c(O)c(O)c1 [n-propyl gallate, Propyl ester of 3,4,5-trihydroxybenzoic acid]",% of [1-14C]-ALA Recovered in Cells,[1]; inhibitor 0.7 mM,46.5%
same,% of [1-14C]-ALA Recovered in Cells,[1]; inhibitor 1.4 mM,36.3%
same,% of [1-14C]-ALA Recovered in Cells,[1]; inhibitor 2.8 mM,39.0%
same,% of [1-14C]-ALA Recovered in Cells,[1]; inhibitor 5.6 mM,34.9%
same,% of [1-14C]-ALA Recovered in Cells,[1]; inhibitor 14.1 mM,17.6%
same,% of [1-14C]-LA Recovered in Cells,[1]; inhibitor 0.7 mM,13.6%
same,% of [1-14C]-LA Recovered in Cells,[1]; inhibitor 1.4 mM,16.7%
same,% of [1-14C]-LA Recovered in Cells,[1]; inhibitor 2.8 mM,16.1%
same,% of [1-14C]-LA Recovered in Cells,[1]; inhibitor 5.6 mM,14.8%
same,% of [1-14C]-LA Recovered in Cells,[1]; inhibitor 14.1 mM,5.1%
same,% of [1-14C]-ALA Recovered in Cells,[2]; inhibitor 7 mM,2.3%
same,% of [1-14C]-ALA Recovered in Cells,[2]; inhibitor 14 mM,2.4%
